Binding data for 4 substances are collected here from PMC9158300.

No constants are given. Whether binding was seen depends on the method and setting. A result given as binding can be weak or reduced; the word gives no strength.

For this assay, the target named is T1, Os02g0817500 protein (miR5075 target protein) (rice (Oryza sativa L.)) (UniProt Q40648).
T1 sequence: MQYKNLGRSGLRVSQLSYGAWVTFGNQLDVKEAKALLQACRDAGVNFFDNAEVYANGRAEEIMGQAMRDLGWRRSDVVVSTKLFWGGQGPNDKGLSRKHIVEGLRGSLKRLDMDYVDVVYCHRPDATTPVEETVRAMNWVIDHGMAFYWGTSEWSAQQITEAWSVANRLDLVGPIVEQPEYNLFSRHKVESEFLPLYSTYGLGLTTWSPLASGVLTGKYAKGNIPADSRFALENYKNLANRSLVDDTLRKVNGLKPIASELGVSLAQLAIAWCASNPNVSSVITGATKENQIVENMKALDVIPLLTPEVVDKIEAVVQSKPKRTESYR
Briefly: two-hybrid; Os02g0817500 as bait (pGBKT7, yeast strain Y2H, nuclear system; also pBT3-N, strain NMY51, membrane system); libraries from embryos of artificially aged and germinated 'Kasalath' and 'Nipponbare' seeds; growth on SD/-Leu/-Trp/-His/-Ade/X-alpha-gal and SD/-Leu/-Trp/-His/-Ade/X-gal plates; empty pGADT7 and pPR3-N as negative controls.
Consider “protein encoded by Os02g0697300 (miR1848 target gene) (rice (Oryza sativa L.))”, for which the binding result is “no binding”.

Consider “protein encoded by Os08g0295100 (rice (Oryza sativa L.))”, for which the binding entry was “binds”.

In the case of “protein encoded by Os07g0633100 (rice (Oryza sativa L.))”, the binding result is given as “binds”.

Take OsPER1 (rice (Oryza sativa L.)): the binding entry is on record as “binds”.
